From ChEMBL document CHEMBL4303122, “Identification of potential treatments for COVID-19 through artificial intelligence-enabled phenomic analysis of human cells infected with SARS-CoV-2” (2020)
Over roughly 1,600 compounds, “Hit score” has its median near 0.13; the highest 2% begin near 0.46. The list shows a part of the results.

These compounds were tested on SARS-CoV-2 (assay: Antiviral activity against SARS-CoV-2 (USA-WA1/2020 strain) measured by imaging in HRCE cells at MOI 0.4 after 96 hrs (reported as hit score from 0-1 for on-disease vs off-disease activity: scores >0.6 considered hits)).
Format: functional, Homo sapiens
Compound `CCOC(=O)c1ncn2c1CN(C)C(=O)c1cc(F)ccc1-2` [FLUMAZENIL] has a Hit score of 0.1603. `NCC(CC(=O)O)c1ccccc1` (stereo not given) [PHENIBUT] was tested, and the Hit score was 0.1202. For `CCN(CC)CCOC(=O)C(Cc1cccc2ccccc12)CC1CCCO1` (stereo not given) [NAFRONYL], the Hit score was 0.1229. `C[C@H](N)[C@H](O)c1cccc(O)c1` [METARAMINOL] showed a Hit score of -0.08479. Work on `CC1=C(CC(=O)O)c2cc(F)ccc2/C1=C\c1ccc(S(C)(=O)=O)cc1` [EXISULIND] yielded a Hit score of 0.1412. `O=C1CN(/N=C/c2ccc([N+](=O)[O-])o2)C(=O)N1` [NITROFURANTOIN] was tested, and the Hit score was 0.1622. `Cc1ccccc1OCC(O)CO` (stereo not given) [MEPHENESIN] gave a Hit score of 0.0981. In the case of `O=C(O)c1ccccc1Nc1cc(Cl)ccc1C(=O)O` [LOBENZARIT], the Hit score is reported as 0.1685. For `CCOC(=O)n1ccn(C)c1=S` [CARBIMAZOLE], the Hit score was 0.2511. `CC(C)OC(=O)CCC/C=C\C[C@@H]1[C@@H](/C=C/[C@@H](O)COc2cccc(C(F)(F)F)c2)[C@H](O)C[C@@H]1O` [TRAVOPROST] was tested, and the Hit score was 0.0267. `O=C1CN(/N=C/c2ccc(-c3ccc([N+](=O)[O-])cc3)o2)C(=O)N1` [DANTROLENE] gave a Hit score of 0.0794. `O=C(O)c1ccc2c(c1)nc(Nc1cccc(Cl)c1)c1ccncc12` [SILMITASERTIB] was tested, and the Hit score was 0.7608. Compound `COC(=O)N[C@H](C(=O)N1CCC[C@H]1c1nc(-c2ccc3c(c2)O[C@@H](c2ccccc2)n2c-3cc3cc(-c4c[nH]c([C@@H]5CCCN5C(=O)[C@@H](NC(=O)OC)C(C)C)n4)ccc32)c[nH]1)C(C)C` [ELBASVIR] has a Hit score of -0.03781. In the case of `CCNC(=O)CCC/C=C\C[C@@H]1[C@@H](/C=C/[C@@H](O)CCc2ccccc2)[C@H](O)C[C@@H]1O` [BIMATOPROST], the Hit score is reported as 0.186. With `COC(=O)C1=C(C)NC(C)=C(C(=O)OC2CCCN(Cc3ccccc3)C2)C1c1cccc([N+](=O)[O-])c1` (stereo not given) [BENIDIPINE] the Hit score was 0.1919. For `O=C(CCCCCCC(=O)Nc1ccccc1)NO` [VORINOSTAT], the Hit score was -0.06059. With `CCCN[C@@H]1CCc2nc(N)sc2C1` [DEXPRAMIPEXOLE] the Hit score was 0.07275. `CNC[C@H](O)[C@@H](O)[C@H](O)[C@H](O)CO.Cc1c(Nc2ncccc2C(=O)O)cccc1C(F)(F)F` [FLUNIXIN MEGLUMINE] showed a Hit score of 0.2448. `CO/N=C(\C(=O)N[C@@H]1C(=O)N2C(C(=O)[O-])=C(C[n+]3cccc4c3CCC4)CS[C@H]12)c1csc(N)n1` [CEFPIROME] was tested, and the Hit score was 0.1204. Work on `Oc1cc(O)cc(O)c1` [PHLOROGLUCINOL] yielded a Hit score of 0.06366. Work on `CC#C[C@]1(O)CC[C@H]2[C@@H]3CCC4=CC(=O)CCC4=C3[C@@H](c3ccc(N(C)C)cc3)C[C@@]21C` [MIFEPRISTONE] yielded a Hit score of 0.07581. `CC(=O)OCC(=O)[C@@]1(O)CC[C@H]2[C@@H]3CCC4=CC(=O)CC[C@]4(C)[C@H]3[C@@H](O)C[C@@]21C` [HYDROCORTISONE ACETATE] showed a Hit score of 0.1773. Work on `CN1CC(O)C2=C/C(=N/NC(N)=O)C(=O)C=C21` (stereo not given) [CARBAZOCHROME] yielded a Hit score of 0.2804. Work on `Nc1c2c(nc3ccccc13)CCCC2` [TACRINE] yielded a Hit score of -0.07444. For `CCCCC(CC)COC(=O)C(C#N)=C(c1ccccc1)c1ccccc1` (stereo not given) [OCTOCRYLENE], the Hit score was 0.1632. `COc1cc2/c(=N/c3ccc(Br)cc3F)nc[nH]c2cc1OCC1CCN(C)CC1` [VANDETANIB] was tested, and the Hit score was 0.2198. With `C/C(=C(\CCOP(=O)(O)O)SC(=O)c1ccccc1)N(C=O)Cc1cnc(C)nc1N` [BENFOTIAMINE] the Hit score was 0.08383. With `CC(C)C(=O)OCC(=O)[C@@]12O[C@H](C3CCCCC3)O[C@@H]1C[C@H]1[C@@H]3CCC4=CC(=O)C=C[C@]4(C)[C@H]3[C@@H](O)C[C@@]12C` [CICLESONIDE] the Hit score was 0.2519. Compound `CCN(CC)C(=S)SSC(=S)N(CC)CC` has a Hit score of 0.2116. Compound `O=C(CCCN1CCN(c2ccccn2)CC1)c1ccc(F)cc1` [AZAPERONE] has a Hit score of 0.2437. `CCc1ccc(Cc2ccc3c(c2)[C@]2(OC3)O[C@H](CO)[C@@H](O)[C@H](O)[C@H]2O)cc1.O` [TOFOGLIFLOZIN] was tested, and the Hit score was -0.02965. With `CC1CC(OC(=O)c2ccccc2O)CC(C)(C)C1` (stereo not given) [HOMOSALATE] the Hit score was 0.04745. In the case of `COC(=O)C1=C(C#N)NC(C)=C(C(=O)OC(C)C)C1c1cccc([N+](=O)[O-])c1` (stereo not given) [NILVADIPINE], the Hit score is reported as 0.06379. Work on `COCCCN1CCC(NC(=O)c2cc(Cl)c(N)c3c2OCC3)CC1` [PRUCALOPRIDE] yielded a Hit score of 0.06391. `CC(C)CC(N(C)C)C1(c2ccc(Cl)cc2)CCC1` (stereo not given) [SIBUTRAMINE] gave a Hit score of 0.2623. Compound `N[C@@H](Cc1cc(I)c(Oc2ccc(O)c(I)c2)c(I)c1)C(=O)O` [LIOTHYRONINE] has a Hit score of 0.01634. `CC[C@]1(O)C[C@@H]2CN(CCc3c([nH]c4ccccc34)[C@@](C(=O)OC)(c3cc4c(cc3OC)N(C)[C@H]3[C@@](O)(C(=O)OC)[C@H](OC(C)=O)[C@]5(CC)C=CCN6CC[C@]43[C@@H]65)C2)C1` [VINBLASTINE] was tested, and the Hit score was 0.2235. In the case of `C[C@H](/C=C/[C@H](C)C(C)(C)O)[C@H]1CC[C@H]2/C(=C/C=C3C[C@@H](O)C[C@H](O)C3)CCC[C@]12C` [PARICALCITOL], the Hit score is reported as 0.5764. For `Cc1ccc(=O)n(-c2ccccc2)c1` [PIRFENIDONE], the Hit score was 0.263. For `CN1CCC(=C2c3ccccc3Sc3ccccc32)CC1` [PIMETHIXENE], the Hit score was 0.1216. In the case of `CC(C)(C)NC(=O)N[C@H](C(=O)N1C[C@H]2[C@@H]([C@H]1C(=O)NC(CC1CCC1)C(=O)C(N)=O)C2(C)C)C(C)(C)C` (stereo not given in full) [BOCEPREVIR], the Hit score is reported as 0.1287. `O=c1[nH]c2ccccc2n1CCCN1CCN(C(c2ccccc2)c2ccccc2)CC1` [OXATOMIDE] was tested, and the Hit score was -0.02938. `CC(C)[N+](C)(CCC(C(N)=O)(c1ccccc1)c1ccccc1)C(C)C` [ISOPROPAMIDE] showed a Hit score of 0.2678. With `CC(=O)OCC1=C(C(=O)O)N2C(=O)[C@@H](NC(=O)CSc3ccncc3)[C@H]2SC1.CC(=O)OCC1=C(C(=O)O)N2C(=O)[C@@H](NC(=O)CSc3ccncc3)[C@H]2SC1.c1ccc(CNCCNCc2ccccc2)cc1` [CEPHAPIRIN BENZATHINE] the Hit score was 0.1882. `CC(=O)[C@@]1(O)CC[C@H]2[C@@H]3CCC4=CC(=O)CCC4=C3[C@@H](c3ccc(N(C)C)cc3)C[C@@]21C` [ULIPRISTAL] was tested, and the Hit score was 0.1448. `O=C(O)c1ccccc1C(=O)Nc1ccc(S(=O)(=O)Nc2nccs2)cc1` [PHTHALYLSULFATHIAZOLE] gave a Hit score of 0.0541. `O=c1[nH]c2ccccc2n1CCCN1CCC(n2c(=O)[nH]c3cc(Cl)ccc32)CC1` [DOMPERIDONE] gave a Hit score of 0.1608. Work on `OCCN(CCO)c1nc(N2CCCCC2)c2nc(N(CCO)CCO)nc(N3CCCCC3)c2n1` [DIPYRIDAMOLE] yielded a Hit score of 0.178. With `CC/C=C(\C(=O)N[C@@H]1C(=O)N2C(C(=O)OCOC(=O)C(C)(C)C)=C(COC(N)=O)CS[C@H]12)c1csc(N)n1.Cl.O` the Hit score was 0.1129. For `CN1CCN(C(c2ccccc2)c2ccccc2)CC1` [CYCLIZINE], the Hit score was 0.1379. With `O=C(/C=C\n1cnc(-c2cc(C(F)(F)F)cc(C(F)(F)F)c2)n1)N1CC(F)(F)C1` the Hit score was 0.328. `CN(CC(=O)O)C(=N)N` [CREATINE] gave a Hit score of 0.1325. Compound `c1ccc2c(CC3=NCCN3)cccc2c1` [NAPHAZOLINE] has a Hit score of 0.002061. `CCN(CC)CC(=O)Nc1c(C)cccc1C` [LIDOCAINE] gave a Hit score of 0.1688. `C=C[C@H]1CN2CC[C@H]1C[C@H]2[C@H](OC(=O)OCC)c1ccnc2ccc(OC)cc12` [QUININE ETHYLCARBONATE] showed a Hit score of 0.1872. With `O=C1NS(=O)(=O)c2ccccc21` [SACCHARIN] the Hit score was 0.1191. In the case of `CC(=O)CC(c1ccccc1)c1c(O)c2ccccc2oc1=O` (stereo not given) [WARFARIN], the Hit score is reported as 0.06756. `CC(C)COc1ccc(CNC(=O)N(Cc2ccc(F)cc2)C2CCN(C)CC2)cc1` [PIMAVANSERIN] gave a Hit score of -0.09171. `CO[C@@H]1[C@@H](O[C@@H]2O[C@H](C)[C@@H](O[C@H]3C[C@@](C)(O)[C@@H](OC(=O)CC(C)C)[C@H](C)O3)[C@H](N(C)C)[C@H]2O)[C@@H](CC=O)C[C@@H](C)[C@@H](O)/C=C/C=C/C[C@@H](C)OC(=O)C[C@H]1OC(C)=O` [JOSAMYCIN] showed a Hit score of 0.08039. `NC(=O)NCCC[C@H](N)C(=O)O` [L-CITRULLINE] was tested, and the Hit score was 0.1542. `COc1ccc2c3c1O[C@H]1C[C@@H](O)C=C[C@@]31CCN(C)C2` [GALANTAMINE] showed a Hit score of 0.2532. `CNC(=O)c1cc(Oc2ccc(NC(=O)Nc3ccc(Cl)c(C(F)(F)F)c3)cc2)ccn1` [SORAFENIB] showed a Hit score of 0.2484. Compound `COc1cccc2c1C(=O)c1c(O)c3c(c(O)c1C2=O)C[C@@](O)(C(C)=O)C[C@@H]3O[C@H]1C[C@H](N)[C@H](O)[C@H](C)O1` [DAUNORUBICIN] has a Hit score of -0.08012. Work on `CN(C)CCn1nnnc1SCC1=C(C(=O)O)N2C(=O)[C@@H](NC(=O)Cc3csc(N)n3)[C@H]2SC1` [CEFOTIAM] yielded a Hit score of 0.003068. Work on `O=C(O)[C@H](CC(=O)N1C[C@H]2CCCC[C@H]2C1)Cc1ccccc1` [MITIGLINIDE] yielded a Hit score of 0.1383.
